Source: patent publication US20240060040A1, “METHODS FOR GENERATING INNER EAR HAIR CELLS” (Ear Science Institute Australia, priority 2020, published 2024)
Some of these results come from one statement about several compounds together.

System: Human iPSCs derived inner ear organoid
Test: Gross morphology / cellular re-organization of inner ear organoid aggregates at day 20-40
Format: cell-based
Settings: SHH inhibitor added days 18-32, Koehler method without inhibitor about 90-95%

## CC1=C2C[C@H]3[C@@H](CC=C4C[C@@H](O)CC[C@@]43C)[C@@H]2CC[C@]12O[C@@H]1C[C@H](C)CN[C@H]1[C@H]2C [cyclopamine]
  efficiency of cellular re-organization (of aggregates): 95-100%
